In publication PMC12594597:
Results are given in words; binding and its absence hold for the method and conditions named. Binding seen in cells or lysates may run through a third protein. These calls come from enrichment with a bait or labelling near it, and not all partners need be listed.

Amino acid sequences for entries named in this document (tags omitted).
UniProt Q14258: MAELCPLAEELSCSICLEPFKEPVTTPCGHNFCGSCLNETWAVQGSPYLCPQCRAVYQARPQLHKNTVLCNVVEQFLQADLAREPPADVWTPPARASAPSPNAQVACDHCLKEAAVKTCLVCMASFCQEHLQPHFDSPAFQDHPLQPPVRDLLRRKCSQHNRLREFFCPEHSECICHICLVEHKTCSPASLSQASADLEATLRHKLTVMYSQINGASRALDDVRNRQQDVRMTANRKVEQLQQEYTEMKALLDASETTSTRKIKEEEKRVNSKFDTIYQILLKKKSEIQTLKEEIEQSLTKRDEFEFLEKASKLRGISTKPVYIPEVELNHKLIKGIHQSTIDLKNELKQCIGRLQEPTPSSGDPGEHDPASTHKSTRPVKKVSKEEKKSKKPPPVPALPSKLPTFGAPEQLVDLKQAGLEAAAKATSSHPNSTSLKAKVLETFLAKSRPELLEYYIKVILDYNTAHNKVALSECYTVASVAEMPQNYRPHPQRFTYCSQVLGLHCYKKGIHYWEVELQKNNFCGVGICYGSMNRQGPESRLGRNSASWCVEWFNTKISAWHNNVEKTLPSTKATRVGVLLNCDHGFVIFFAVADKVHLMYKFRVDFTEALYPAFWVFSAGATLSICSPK

Target: T1, Carnitine Palmitoyltransferase 1A (CPT1A) (human (endogenous in THP-1)) (UniProt P50416)
T1 sequence: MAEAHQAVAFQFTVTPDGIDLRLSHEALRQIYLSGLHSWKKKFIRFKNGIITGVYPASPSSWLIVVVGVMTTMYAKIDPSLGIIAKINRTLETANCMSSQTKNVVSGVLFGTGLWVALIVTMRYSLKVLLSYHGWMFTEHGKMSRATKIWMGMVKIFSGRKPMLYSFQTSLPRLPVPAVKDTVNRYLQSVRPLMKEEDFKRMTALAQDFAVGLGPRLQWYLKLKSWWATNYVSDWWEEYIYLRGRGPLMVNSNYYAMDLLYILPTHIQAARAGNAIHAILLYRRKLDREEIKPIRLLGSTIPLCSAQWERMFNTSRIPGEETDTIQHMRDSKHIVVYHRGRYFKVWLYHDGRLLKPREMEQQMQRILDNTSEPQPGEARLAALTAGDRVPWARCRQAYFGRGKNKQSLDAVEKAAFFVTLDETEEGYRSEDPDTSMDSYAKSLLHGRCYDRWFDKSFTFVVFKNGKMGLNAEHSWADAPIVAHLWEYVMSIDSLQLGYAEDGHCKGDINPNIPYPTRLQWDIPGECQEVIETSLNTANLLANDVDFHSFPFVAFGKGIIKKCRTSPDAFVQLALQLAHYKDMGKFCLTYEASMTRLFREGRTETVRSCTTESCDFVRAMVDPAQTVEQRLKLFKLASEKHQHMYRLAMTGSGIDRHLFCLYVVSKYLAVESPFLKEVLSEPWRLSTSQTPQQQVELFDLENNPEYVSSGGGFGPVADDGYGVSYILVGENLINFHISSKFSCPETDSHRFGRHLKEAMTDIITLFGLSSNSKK
Experiment: affinity purification with mass spectrometry; LC-MS/MS of the CPT1A immunoprecipitate; cells not given

In the case of “TRIM25 (tripartite motif-containing 25) (from UniProt Q14258 1-630)”, the binding was “binds”.
